In the supplement of paper PMC10470496:
Structures can show the parent of a compound that is named as a salt. The list shows a part of the results. Repeats are few or missing, and single values can be far off.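 Three clinical Candida auris isolates (clades III, IV and I) from the CDC resistance isolate bank were grown in RPMI-1640 at 35°C. Growth was background-corrected OD600 relative to same-plate vehicle-only wells. Hits required over 50% inhibition in at least two strains and a plate-corrected B-score above 0.1.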

How the values were obtained:
Test in all cases: growth relative to vehicle control (OD600 ratio) (fraction); higher = less inhibition
Details in all cases: 24 h
[1] = tested on: C. auris AR-384
[2] = tested on: C. auris AR-386
[3] = tested on: C. auris AR-387

| SMILES | growth ([1]; 1 µM) | growth ([1]; 10 µM) | growth ([2]; 1 µM) | growth ([2]; 10 µM) | growth ([3]; 1 µM) | growth ([3]; 10 µM) |
| --- | --- | --- | --- | --- | --- | --- |
| CC(C)(OCc1nn(Cc2ccccc2)c2ccccc12)C(=O)O [Bindarit] | 0.95 | 0.86 | 0.95 | 1.1 | 1.13 | 0.97 |
| CCN(CC)CC(=O)Nc1c(C)cccc1C [Lidocaine] | 0.63 | 0.6 | 0.68 | 1.02 | 0.84 | 0.75 |
| C=CC1=C(C(=O)O)N2C(=O)[C@@H](NC(=O)/C(=N\O)c3csc(N)n3)[C@H]2SC1 [Cefdinir] | 0.96 | 1.11 | 0.96 | 1.11 | 1.2 | 1.11 |
| N=C(N)NC(=O)Cc1c(Cl)cccc1Cl [Guanfacine Hydrochloride] | 0.81 | 0.8 | 0.93 | 0.93 | 0.72 | 0.88 |
| OCCN1C[C@H](O)[C@@H](O)[C@H](O)[C@H]1CO [Miglitol] | 0.97 | 0.82 | 1 | 0.96 | 0.71 | 0.83 |
| CCCCOC(=O)c1ccc(N)cc1 [Butamben] | 1.05 | 1.23 | 1.27 | 1.34 | 1.38 | 1.25 |
| COc1cc2c(cc1OC)CC(=O)N(CCCN(C)C[C@H]1Cc3cc(OC)c(OC)cc31)CC2 [Ivabradine HCl] | 0.89 | 0.85 | 0.82 | 0.83 | 1.16 | 1.13 |
| CCC1=C[C@@H]2CN(C1)Cc1c([nH]c3ccccc13)[C@@](C(=O)OC)(c1cc3c(cc1OC)N(C)[C@H]1[C@@](O)(C(=O)OC)[C@H](OC(C)=O)[C@]4(CC)C=CCN5CC[C@]31[C@@H]54)C2 [Vinorelbine Tartrate] | 0.99 | 0.94 | 1.12 | 0.8 | 0.72 | 0.85 |
| Nc1ccc(S(N)(=O)=O)cc1 [Sulfanilamide] | 0.79 | 0.87 | 0.74 | 0.74 | 0.73 | 0.85 |
| C1CNCCN1 [Piperazine] | 1.29 | 1.13 | 0.88 | 1.19 | 0.83 | 0.82 |
| CCOC(=O)c1ccc(N)cc1 [Benzocaine] | 0.78 | 0.82 | 0.57 | 0.59 | 0.74 | 1.13 |
| CC1CCc2cc(F)cc3c(=O)c(C(=O)O)cn1c23 (stereo not drawn) [Flumequine] | 1.17 | 0.96 | 0.9 | 0.91 | 0.77 | 1.1 |
| CC/C(=C(\c1ccccc1)c1ccc(OCCN(C)C)cc1)c1ccccc1 [Tamoxifen Citrate] | 0.86 | 0.66 | 0.54 | 0.72 | 0.67 | 0.82 |
| CCC1=C(C)CN(C(=O)NCCc2ccc(S(=O)(=O)NC(=O)N[C@H]3CC[C@H](C)CC3)cc2)C1=O [Glimepiride] | 1.24 | 1.41 | 1.51 | 1.11 | 1.41 | 1.38 |
| Oc1c(Cl)cc(Cl)c(Cl)c1Cc1c(O)c(Cl)cc(Cl)c1Cl [Hexachlorophene] | 0.65 | 0.44 | 0.67 | 0.74 | 0.68 | 0.44 |
| CN(C)[C@@H]1C(O)=C(C(N)=O)C(=O)[C@@]2(O)C(O)=C3C(=O)c4c(O)cccc4[C@@](C)(O)[C@H]3[C@H](O)[C@@H]12 [Oxytetracycline (Terramycin)] | 0.77 | 0.88 | 0.65 | 0.61 | 0.55 | 0.65 |
| CC(=O)OCC1=C(C(=O)O)N2C(=O)[C@@H](NC(=O)Cc3cccs3)[C@H]2SC1 [Cephalothin] | 1.2 | 1.37 | 1.29 | 1.21 | 1.11 | 1.48 |
| COC(=O)Nc1nc2cc(C(=O)c3ccc(F)cc3)ccc2[nH]1 [Flubendazole] | 0.8 | 0.81 | 0.91 | 1.03 | 0.9 | 0.75 |
| C=C[C@]1(C)C[C@@H](OC(=O)CS[C@@H]2C[C@H]3CC[C@@H](C2)N3C)[C@]2(C)[C@H](C)CC[C@]3(CCC(=O)[C@H]32)[C@@H](C)[C@@H]1O [Retapamulin] | 0.87 | 0.65 | 0.75 | 0.78 | 0.8 | 0.64 |
| Nc1nc(=O)n([C@@H]2CS[C@H](CO)O2)cc1F [Emtricitabine] | 0.97 | 0.72 | 0.72 | 0.7 | 0.99 | 0.84 |
| CCCCNc1ccc(C(=O)OCCN(C)C)cc1 [Tetracaine HCl] | 0.88 | 0.79 | 1.04 | 0.63 | 0.75 | 0.89 |
| Cc1cc(C(C)(C)C)cc(C)c1CC1=NCCN1 [Xylometazoline HCl] | 0.94 | 0.75 | 0.88 | 0.57 | 0.59 | 0.76 |
| CC(=O)N[C@@H](CS)C(=O)O [Acetylcysteine] | 0.96 | 1.02 | 1.14 | 1.13 | 0.89 | 0.87 |
| O=c1[nH]c(=O)n([C@H]2C[C@H](O)[C@@H](CO)O2)cc1I [Idoxuridine] | 0.97 | 0.89 | 1.11 | 1.12 | 1.07 | 1.1 |

| SMILES | growth ([1]; 1 µM) | growth ([1]; 10 µM) | growth ([2]; 1 µM) | growth ([2]; 10 µM) | growth ([3]; 1 µM) | growth ([3]; 10 µM) |
| --- | --- | --- | --- | --- | --- | --- |
| CCCc1nc(C)c2c(=O)nc(-c3cc(S(=O)(=O)N4CCN(CC)CC4)ccc3OCC)[nH]n12 [Vardenafil HCl Trihydrate] | 1.64 | 1.07 | 0.75 | 0.84 | 0.67 | 0.87 |
| O=NN(CCCl)C(=O)NC1CCCCC1 [Lomustine] | 0.86 | 0.85 | 0.89 | 0.92 | 1.08 | 0.89 |
| COc1cc2c(cc1OC)CN(CCc1ccc(NC(=O)c3cccc4c(=O)c5cccc(OC)c5[nH]c34)cc1)CC2 | 0.87 | 0.79 | 0.66 | 0.87 | 0.82 | 0.73 |
| CNC(=O)c1ccc2cc([C@@]3(O)CCn4cncc43)ccc2c1 [TAK-700 (Orteronel)] | 1.56 | 1.2 | 1.02 | 0.92 | 0.8 | 0.64 |
| CCN1CCN(C(=O)N[C@@H](C(=O)N[C@@H]2C(=O)N3C(C(=O)O)=C(CSc4nnnn4C)CS[C@H]23)c2ccc(O)cc2)C(=O)C1=O [Cefoperazone] | 1.02 | 0.75 | 0.78 | 1.21 | 0.98 | 1.02 |
| Cc1c(O)cccc1C(=O)N[C@@H](CSc1ccccc1)[C@H](O)CN1C[C@H]2CCCC[C@H]2C[C@H]1C(=O)NC(C)(C)C [Nelfinavir Mesylate] | 0.77 | 1.05 | 0.82 | 0.81 | 0.94 | 0.99 |
| CCCSc1ccc2[nH]c(NC(=O)OC)nc2c1 [Albendazole] | 0.68 | 0.61 | 0.44 | 0.95 | 0.69 | 0.8 |
| OCCN1CCN(CCCN2c3ccccc3Sc3ccc(Cl)cc32)CC1 [Perphenazine] | 0.8 | 0.7 | 0.86 | 1.07 | 0.86 | 0.9 |
| CC1(C)S[C@@H]2[C@H](NC(=O)Cc3ccccc3)C(=O)N2[C@H]1C(=O)O [Penicillin G Sodium] | 0.87 | 0.89 | 0.83 | 0.73 | 0.72 | 0.99 |
| CCCCN1CCCCC1C(=O)Nc1c(C)cccc1C (stereo not drawn) [Bupivacaine HCl] | 0.87 | 0.89 | 1.14 | 0.91 | 0.79 | 1.02 |
| COC(=O)/C=C/C(=O)OC [Dimethyl Fumarate] | 0.88 | 0.88 | 0.9 | 0.57 | 0.68 | 0.68 |
| Cc1cc(C)cc(OCC2CNC(=O)O2)c1 (stereo not drawn) [Metaxalone] | 1.08 | 1.08 | 1.46 | 0.95 | 0.91 | 0.96 |
| Cn1cnc2c(F)c(Nc3ccc(Br)cc3F)c(C(=O)NOCCO)cc21 | 1.01 | 0.91 | 0.66 | 0.91 | 0.9 | 0.81 |
| CCOc1ccc(Cc2cc([C@@H]3O[C@H](CO)[C@@H](O)[C@H](O)[C@H]3O)ccc2Cl)cc1 [Dapagliflozin] | 0.96 | 1.43 | 1.31 | 1.27 | 1.36 | 1.28 |
| CCCCCCCCCC(=O)N[C@@H](Cc1c[nH]c2ccccc12)C(=O)N[C@H](CC(N)=O)C(=O)N[C@@H](CC(=O)O)C(=O)N[C@@H]1C(=O)NCC(=O)N[C@@H](CCCN)C(=O)N[C@@H](CC(=O)O)C(=O)N[C@H](C)C(=O)N[C@@H](CC(=O)O)C(=O)NCC(=O)N[C@H](CO)C(=O)N[C@@H]([C@H](C)CC(=O)O)C(=O)N[C@@H](CC(=O)c2ccccc2N)C(=O)O[C@@H]1C [Daptomycin] | 1.15 | 1.28 | 1.02 | 1.23 | 1.24 | 1.18 |
| NC(=O)C1CCCc2c1[nH]c1ccc(Cl)cc21 (stereo not drawn) [Selisistat (EX 527)] | 0.97 | 0.92 | 1.29 | 1.36 | 0.92 | 0.98 |
| CC(O)(P(=O)(O)O)P(=O)(O)O [Etidronate] | 0.84 | 0.7 | 0.72 | 0.66 | 0.7 | 1.11 |
| N=C(NCCCCCCNC(=N)NC(=N)Nc1ccc(Cl)cc1)NC(=N)Nc1ccc(Cl)cc1 [Chlorhexidine 2HCl] | 0.98 | 0.94 | 1.19 | 1.05 | 1.22 | 1 |
| COc1cc(Nc2c(C#N)cnc3cc(OCCCN4CCN(C)CC4)c(OC)cc23)c(Cl)cc1Cl [Bosutinib (SKI-606)] | 0.86 | 0.66 | 0.59 | 0.97 | 1.13 | 0.89 |
| CCCCC1=NC2(CCCC2)C(=O)N1Cc1ccc(-c2ccccc2-c2nnn[nH]2)cc1 [Irbesartan] | 0.84 | 0.98 | 0.89 | 0.73 | 0.89 | 0.82 |
| CC(=O)/N=c1/sc(S(N)(=O)=O)nn1C [Methazolamide] | 0.84 | 0.91 | 0.66 | 0.66 | 0.81 | 0.71 |
| COC(=O)C1=C(C)NC(C)=C(C(=O)OC(C)C)C1c1cccc2nonc12 (stereo not drawn) [Isradipine] | 0.91 | 0.88 | 0.74 | 0.75 | 0.73 | 0.74 |
| N#Cc1cc(-c2n[nH]c(-c3ccncc3)n2)ccn1 [Topiroxostat] | 1.29 | 1.2 | 0.94 | 0.99 | 1 | 0.92 |
| CCOc1ccccc1OCCN[C@H](C)Cc1ccc(OC)c(S(N)(=O)=O)c1 [Tamsulosin hydrochloride] | 0.79 | 0.73 | 0.85 | 0.56 | 0.75 | 0.8 |

Part of the list above, as comma-separated lines.
SMILES,growth ([1]; 1 µM),growth ([1]; 10 µM),growth ([2]; 1 µM),growth ([2]; 10 µM),growth ([3]; 1 µM),growth ([3]; 10 µM)
CNC(=O)c1ccc2cc([C@@]3(O)CCn4cncc43)ccc2c1 [TAK-700 (Orteronel)],1.56,1.2,1.02,0.92,0.8,0.64
CCN1CCN(C(=O)N[C@@H](C(=O)N[C@@H]2C(=O)N3C(C(=O)O)=C(CSc4nnnn4C)CS[C@H]23)c2ccc(O)cc2)C(=O)C1=O [Cefoperazone],1.02,0.75,0.78,1.21,0.98,1.02
Cc1c(O)cccc1C(=O)N[C@@H](CSc1ccccc1)[C@H](O)CN1C[C@H]2CCCC[C@H]2C[C@H]1C(=O)NC(C)(C)C [Nelfinavir Mesylate],0.77,1.05,0.82,0.81,0.94,0.99
CCCSc1ccc2[nH]c(NC(=O)OC)nc2c1 [Albendazole],0.68,0.61,0.44,0.95,0.69,0.8
OCCN1CCN(CCCN2c3ccccc3Sc3ccc(Cl)cc32)CC1 [Perphenazine],0.8,0.7,0.86,1.07,0.86,0.9
CC1(C)S[C@@H]2[C@H](NC(=O)Cc3ccccc3)C(=O)N2[C@H]1C(=O)O [Penicillin G Sodium],0.87,0.89,0.83,0.73,0.72,0.99
CCCCN1CCCCC1C(=O)Nc1c(C)cccc1C (stereo not drawn) [Bupivacaine HCl],0.87,0.89,1.14,0.91,0.79,1.02
COC(=O)/C=C/C(=O)OC [Dimethyl Fumarate],0.88,0.88,0.9,0.57,0.68,0.68
Cc1cc(C)cc(OCC2CNC(=O)O2)c1 (stereo not drawn) [Metaxalone],1.08,1.08,1.46,0.95,0.91,0.96
Cn1cnc2c(F)c(Nc3ccc(Br)cc3F)c(C(=O)NOCCO)cc21,1.01,0.91,0.66,0.91,0.9,0.81
